PMC10696645
These are yes or no findings as the source states them, for the method shown. Binding seen in cells or lysates may run through a third protein. Some binding calls cover weakened binding; strength is not graded here.

Chains of the proteins cited; added tags and fusions are not shown.
UniProt Q01831: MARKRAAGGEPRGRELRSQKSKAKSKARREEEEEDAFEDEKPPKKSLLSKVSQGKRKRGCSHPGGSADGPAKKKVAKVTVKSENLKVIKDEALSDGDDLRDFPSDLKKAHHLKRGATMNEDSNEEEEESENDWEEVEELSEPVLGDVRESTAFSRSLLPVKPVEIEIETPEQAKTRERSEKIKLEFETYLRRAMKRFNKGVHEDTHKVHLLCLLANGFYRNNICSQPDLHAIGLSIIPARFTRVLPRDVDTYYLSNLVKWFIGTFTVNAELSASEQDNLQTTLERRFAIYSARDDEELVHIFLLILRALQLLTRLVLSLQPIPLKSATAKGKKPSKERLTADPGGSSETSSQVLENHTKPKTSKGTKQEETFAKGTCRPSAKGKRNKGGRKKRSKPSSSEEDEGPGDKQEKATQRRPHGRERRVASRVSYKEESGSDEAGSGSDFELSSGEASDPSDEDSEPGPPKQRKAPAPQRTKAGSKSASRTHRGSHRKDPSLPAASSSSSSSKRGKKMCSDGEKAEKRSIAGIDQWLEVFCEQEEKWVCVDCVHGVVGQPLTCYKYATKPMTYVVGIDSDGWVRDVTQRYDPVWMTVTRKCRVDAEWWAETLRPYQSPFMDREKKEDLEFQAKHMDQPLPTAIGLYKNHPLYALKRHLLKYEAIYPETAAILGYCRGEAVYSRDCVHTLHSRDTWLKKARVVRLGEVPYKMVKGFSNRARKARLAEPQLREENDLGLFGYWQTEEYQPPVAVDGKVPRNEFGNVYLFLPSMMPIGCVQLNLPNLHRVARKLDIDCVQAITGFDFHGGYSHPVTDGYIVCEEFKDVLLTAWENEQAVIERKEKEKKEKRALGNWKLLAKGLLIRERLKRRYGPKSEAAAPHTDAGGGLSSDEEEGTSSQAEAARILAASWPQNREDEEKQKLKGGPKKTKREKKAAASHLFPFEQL
UniProt Q92466: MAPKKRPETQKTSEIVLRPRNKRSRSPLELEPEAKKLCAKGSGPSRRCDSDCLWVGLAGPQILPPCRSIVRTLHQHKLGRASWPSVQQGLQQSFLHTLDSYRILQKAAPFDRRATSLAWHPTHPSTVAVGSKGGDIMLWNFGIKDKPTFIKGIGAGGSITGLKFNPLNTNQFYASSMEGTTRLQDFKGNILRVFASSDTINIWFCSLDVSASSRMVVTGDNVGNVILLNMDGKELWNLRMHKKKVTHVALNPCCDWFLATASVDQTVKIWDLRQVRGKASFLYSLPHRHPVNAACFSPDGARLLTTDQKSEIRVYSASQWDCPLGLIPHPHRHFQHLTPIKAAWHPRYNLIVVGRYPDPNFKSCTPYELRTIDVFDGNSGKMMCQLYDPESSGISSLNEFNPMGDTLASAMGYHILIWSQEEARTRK

Target: Flag-GFP-XPC (knock-in, HCT116) (human (endogenous in HCT116)) (UniProt Q01831)
Experiment: co-IP; GFP-Trap beads on GFP-XPC from 1% formaldehyde-crosslinked, sonicated nuclear lysate (RIPA buffer) of GFP-XPC KI HCT116 cells; cells treated with 600 uM oxaliplatin or cisplatin for 2, 4 or 6 h or 30 J/m^2 UV-C and 30 min repair; overnight at 4 C; crosslinks reverted, immunoblot

Substance: DDB2 (from UniProt Q92466 1-427)
- binding: binds
